## Results of single-concentration screens

Each number is a percent effect as filed.
The controls that fix the scale are not given in the record; negative values are as filed.
Compounds were drawn at random from those tested, without regard to their results.

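Whole-parasite assay of Trypanosoma brucei over 72 hours; the read-out is not stated. Concentration: 30 µM. Direction is inferred from retests: higher values go with stronger inhibition. Values scatter widely below zero; nearly all retest evidence comes from the higher of the two concentrations used. Of about 64,000 compounds tested this way, about 940 (1.5%) reached 50% or more in at least one test.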

structure | percent effect
CCC(=O)N1CCC(Cc2ccccc2-c2cccc(C)c2)(C(N)=O)C1 (configuration not stated) | -28.41
CS(=O)(=O)CC1(CNc2c(C#N)cnc3ccc(Cl)cc23)CC1 | -1.301
Cc1nnc2n1CCN(CCOc1ccccc1C#N)C2 | -25.14
CC(CNC(=O)c1cnc[nH]1)Oc1ccc(Cl)cc1 (configuration not stated) | -43.15
CC(C)C1CCC(N2CCN(CCCS(C)(=O)=O)CC2)CC1 (configuration not stated) | -15.95
[H][C@@]12CNC(=O)N1CCN(Cc1ccccn1)C2 | 2.14
COC(=O)CN1CCN(c2cccc(C)c2)CC1 | -41.05
CC(C)N(C)C(=O)Cn1ncc(N(C)CCc2ccccc2)cc1=O | 11.78
CCN(CC)CCC(=O)NCc1cc2n(n1)CCN(C(=O)N(C)C)C2 | -28.32
Cc1cc(C[C@@H]2CCC[C@H]2NCc2c[nH]nc2-c2ccccc2)on1.O=C(O)CC(O)(CC(=O)O)C(=O)O | 19.9
O=C(O)C(F)(F)F.[H][C@@]12C[C@H](C(=O)NC3CCCC3)CN(Cc3ccoc3)[C@]1([H])CCO2 | -15.68
COC(=O)c1ccc(NC(=O)CCNCc2ccco2)cc1 | -119.7
CN(C)CCN1CCCC12CCCN(C(=O)c1cccnc1)C2.O=C(O)C(F)(F)F.O=C(O)C(F)(F)F (configuration not stated) | -32.5
CN(c1ncnc2c1CCC2)C1CCCN(c2cccnn2)C1 (configuration not stated) | -41.61
CS(=O)(=O)c1ccc(NCc2ccc(F)cc2)cn1 | -38.51
O=C(O)C(F)(F)F.O=C(O)C(F)(F)F.[H][C@]12CCC[C@@]1(COc1cccnc1)CN(c1ccc(C)nn1)C2 | -5.917
CCc1nc(C)cc(N2CCCC(C(=O)c3ccc(OC)cc3C)C2)n1 (configuration not stated) | 68.93
Cc1c(CNCc2nn(-c3ccccc3)c3c2CCC3)cc(C#N)n1C | -10.92
Cc1ccc2nc(CN3CCCCC3C(=O)N3CCOCC3)cn2c1 (configuration not stated) | -32.11
Fc1cccc2c1CCC2NCc1ccc(N2CCOCC2)cc1 (configuration not stated) | -5.779
CN(C)c1nccnc1C1CCN(C2CCCCC2O)CC1 (configuration not stated) | -0.9365
CCN(C1CCN(C(=O)c2cccc(Cl)c2)CC1)S(C)(=O)=O | -34.62
N#Cc1cc(NS(=O)(=O)c2ccc(C(=O)O)cc2F)ccc1F | 20.42
Cc1cccc(CN2C(=O)CCC23CCN(C(=O)c2ccco2)CC3)c1 | 10.06
N#Cc1ccc(N2CCCN(CC(N)=O)CC2)cc1 | 0.5511
Cc1cccc(-c2nc(N)nc3c2CN(C(=O)C2CCCC2)C3C)c1 (configuration not stated) | -3.943
Cc1noc(C)c1CNC(=O)N1CCCC(C)CC1 (configuration not stated) | -35.45
Cc1noc(C)c1CN(C)Cc1csc(-c2ccc(F)cc2)n1 | -7.46
CC(C)CC(=O)N1Cc2ccccc2CC1C(=O)Nc1nccs1 (configuration not stated) | 7.79
CN(CCn1nc2ccccn2c1=O)CC(=O)N1CCCC1 | -11.01
Cc1cn(Cc2ccc(F)cc2)nc1N | 7.283
O=C(c1ccc(F)c(F)c1)N1CCCC(Nc2ccc(F)cc2)C1 (configuration not stated) | 1.298
COCCC(=O)N1CCC2(CC1)CN(S(C)(=O)=O)Cc1ccccc1O2 | -22
CC(O)CN1CCC(CNCc2ccc(C(N)=O)cc2)CC1 (configuration not stated) | -25.42
O=C1Nc2ccccc2CC12CCN(CCO)C2 (configuration not stated) | -14.61
O=C(C1CNCCN1C(=O)CCc1cccnc1)N1CCOCC1 (configuration not stated) | -24.73
CS(=O)(=O)NCc1ncn2c1CN(C(=O)C1CCCCC1)CCC2 | -12
O=C1CCC2(CCCN(C(=O)C3CCCC3)C2)CN1CCc1c[nH]cn1 (configuration not stated) | -29.09
CC(C)N(C)C(=O)C1CSCN1S(=O)(=O)c1cccs1 (configuration not stated) | -13.37
Cc1cccc(N2CCN(C(=O)C3CC4(CCNCC4)CN3)CC2)n1 (configuration not stated) | -40.08
Cn1cccc1C(=O)N1CCC2(CC1)CC(N1CCOCC1)C2.O=C(O)C(F)(F)F | -54.57
Cn1cc2c(n1)C(CNCC1CCOCC1)OCC2.O=C(O)C(F)(F)F.O=C(O)C(F)(F)F (configuration not stated) | -57.04
Cc1nn(C)c(C)c1-c1ccnc(N(C)Cc2noc(C(C)C)n2)n1 | -34.83
[H][C@@]12CS(=O)(=O)C[C@]1([H])N(C(=O)NCC)CCN2Cc1ccc(CCC)o1 | 22.59
CC(C)NC(=O)CC(C)NCc1ccc(F)cc1Cl (configuration not stated) | -1.352
Cc1ccc2c(c1)N(C(=O)C1CCCOC1)CCC2 (configuration not stated) | -6.301
NC(=O)C(CNC(=O)CCc1ccccc1)Cc1ccc(F)cc1 (configuration not stated) | -4.341
COC(=O)[C@H]1C[C@@H](O)CCN1S(=O)(=O)c1ccc(F)cc1F | -44.08
Cc1nn(C)c(C)c1-c1ccc(=O)n(C(C)C(=O)NC2CCCC2)n1 (configuration not stated) | -10.97
CN(Cc1nccn1C)S(=O)(=O)N1CCCC1c1ccco1 (configuration not stated) | -17.85
Cc1cc(C2CCCN(CC(=O)N3CCc4ccccc43)C2)n[nH]1 (configuration not stated) | -0.2301
O=C(C1CC1)N1CCC2(CC1)OCCO2 | -14.13
CCc1nc(CN2CCCC(NCc3ncc(C(C)(C)C)o3)C2)no1 (configuration not stated) | -3.615
COc1ccccc1C(C)CNC(=O)c1c(C)nn(C)c1OC (configuration not stated) | -11.58
Cl.Cl.O[C@@H]1C[C@@](CNCC2CC2)(COc2cccnc2)C[C@@H]1O | -1.461
COCCN1CCC12CCN(c1ncccn1)C2.O=C(O)C(F)(F)F (configuration not stated) | -31.03
CCOCCN1CCN(CC(O)c2cc(Cl)ccc2Cl)CC1 (configuration not stated) | -9.766
Cc1nn(C)c(C)c1NC(=O)CCn1ncc2ccc(Cl)cc21 | -21.64
CN(Cc1ccc(F)cc1)CC1(O)CCCN(CC(C)(C)C)C1=O (configuration not stated) | -17.38
O=C(NCC1CCCO1)Nc1nnc(C(F)(F)F)s1 (configuration not stated) | -32.29
Cc1nc(C(=O)NCc2ccc(N3CCNC(=O)C3)c(F)c2)cs1 | -38.38
Cc1nnc2n1CCN(Cc1csc(-c3ccc(F)cc3)n1)C2 | 19.68
[H][C@@]12C[C@H](C(=O)N3CCCC3)[C@@]([H])(CN(C(=O)Nc3ccc(CC)cc3)C1)O2 | -20.23
Cc1noc(C)c1-c1cncc(C2CCCN2Cc2cc[nH]n2)n1 (configuration not stated) | 15.86
Cc1cc(NC(=O)CN2CCCCC2Cn2nc(C)nc2C)on1 (configuration not stated) | 17.2
COCCN1CCC12CCN(C(=O)c1ccc(C)nc1)C2.O=C(O)C(F)(F)F (configuration not stated) | 8.313
O=C(CC1CCCC1)NCCn1ccc(-c2ccncc2)n1 | -14.63
c1cncc(-c2ccnn2CN2CCC3(CC2)OCCO3)c1 | -30.12
CC1CCN(C(=O)CSCCN2CCOCC2)CC1 | -30.39
COc1ccc(CNC(=O)Nc2ccc(CN3CCOC3=O)cc2)cc1 | -6.886
O=C(CCc1c[nH]cn1)N1CC[C@@H](c2ccc3ccccc3c2)[C@H](O)C1 | 21.51
OCCN1CCc2[nH]nc(C(c3ccccc3)c3ccccc3)c2C1 | -61.56
CCN(C(=O)c1ccc2nnc(C3CCN(C(C)=O)C3)n2c1)C(C)C (configuration not stated) | -41.69
COCCNC(=O)N1CCN(C(=O)Cc2ccccc2F)CC1 | 9.088
CN1CCN(c2cc(CNCc3cccc4c3OCO4)ccn2)CC1 | -15.76
COc1ccc(Nc2ncccc2C#N)cc1N1CCCC1=O | -10.17
CC(CNC(=O)Nc1ccc(N(C)C)nc1)Cn1cccn1 (configuration not stated) | 19.85
Cc1cc(CNC(=O)NCCC(=O)N2CCCc3ccccc32)no1 | -12.6
Cc1nn(C)c(C)c1CN(Cc1cccn1-c1ncccn1)C(C)C | -54.41

For reference, 9 entries once more:

For c1cncc(-c2ccnn2CN2CCC3(CC2)OCCO3)c1 the result was -30.12%.
For Cl.Cl.O[C@@H]1C[C@@](CNCC2CC2)(COc2cccnc2)C[C@@H]1O the result was -1.461%.
For Cc1nn(C)c(C)c1CN(Cc1cccn1-c1ncccn1)C(C)C the result was -54.41%.
For N#Cc1cc(NS(=O)(=O)c2ccc(C(=O)O)cc2F)ccc1F the result was 20.42%.
For CCN(C1CCN(C(=O)c2cccc(Cl)c2)CC1)S(C)(=O)=O the result was -34.62%.
For COc1ccccc1C(C)CNC(=O)c1c(C)nn(C)c1OC (configuration not stated) the result was -11.58%.
For Cc1nc(C(=O)NCc2ccc(N3CCNC(=O)C3)c(F)c2)cs1 the result was -38.38%.
For CC1CCN(C(=O)CSCCN2CCOCC2)CC1 the result was -30.39%.
For CC(O)CN1CCC(CNCc2ccc(C(N)=O)cc2)CC1 (configuration not stated) the result was -25.42%.

Source: ChEMBL document CHEMBL3988442, “University of Dundee, Small-Polar-MMV Screening Library” (2021).